SMILES strings stand for the structures. The list shows a part of the results. The main result of the screen is listed elsewhere. These columns were measured beside it and carry no call. Compounds called inactive in the main read-out are mostly missing here. Words in brackets tell the shape of the fitted curve; partial curves, single points and poor fits give uncertain potencies.

A short description of this experiment: qHTS Assay for Lipid Storage Modulators in Drosophila S3 Cells.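 On cell number change: cells counted by Cell Tracker Red CMTPX staining in the red channel.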 As to conditions: BODIPY lipid droplet fluorescence, 18-24 h; for cell number change: measured here: cell count max response, cells fed with added oleic acid. An outline of the steps: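 Drosophila S3 cells got compounds at several concentrations plus oleic acid (400 uM solution). Laser-scanning cytometry with 488 nm excitation read lipid droplets at 500-530 nm and cells at 575-640 nm. Percent activity was relative to 20 uM Triacsin C.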
(In qHTS, concentration-response curves come from the screen itself.)

Where [1] appears, read: measured here: lipid fluorescence (Fed channel) AC50, cells fed with added oleic acid.
Where [2] appears, read: measured here: cell number channel AC50, cells fed with added oleic acid.

Take `COc1ccc(C2=NOC(C(=O)NCCN3CCOCC3)C2)cc1` (stereo not given): the cell number change was determined as 12.6%.
`COc1ccc(CSc2nnnn2C)cc1F`: the cell number change was -12.6%. Moreover, the AC50 under setting [1] was 18.4 µM [falling, single point].
In the case of `CCCC(=O)NC(c1ccc(OC)cc1)c1ccc2cccnc2c1O` (stereo not given), the cell number change is -31.6%.
Take `CN(C)CCCNC(=O)C(=O)Nc1ccc2c(c1)N(S(=O)(=O)c1cccs1)CCC2`: the cell number change came to 92.9%. For the same molecule, under setting [2], the AC50 was 29.1 µM [rising, single point].
On to `CCOc1ccc(Cl)cc1S(=O)(=O)N1CCC(C(=O)NCc2ccco2)CC1`, for which the cell number change turned out to be 5.04%. Moreover, the AC50 under setting [1] was 18.4 µM [rising, single point].
For `O=C(CSC(=S)N1CCCC1)N(Cc1nnc(-c2ccccc2Cl)o1)C1CC1`, the cell number change is -15.3%.
With `COc1ccccc1CCNS(=O)(=O)c1cn(C)c(=O)n(C)c1=O`, the cell number change was -29.4%. Besides, the AC50 under setting [1] is 14.6 µM [falling, partial curve].
Turning to `Cc1ccc(CCC(=O)Nc2ccc(Cl)cc2)o1`, the cell number change is -3.81%. In addition, the AC50 under setting [1] was 0.651 µM [rising, single point].
`Cc1c2ccccc2nc2c(F)c(NC(C)C)c(F)c(F)c12`: the AC50 under setting [1] is 23.1 µM [falling, partial curve].
As for `CC(OC(=O)/C=C/c1ccccc1)C(=O)Nc1ccc2c(c1)OCCO2` (stereo not given), the cell number change is -27.1%. Moreover, the AC50 under setting [1] was 16.4 µM [falling, single point].
Take `Cc1c(NC(=O)OCc2ccccc2)c(=O)n(-c2ccccc2)n1C`: the cell number change is -25%. Besides, under setting [2], the AC50 is 0.146 µM [falling, full curve, poor fit]. Under setting [1], the AC50 was 0.82 µM [falling, full curve, poor fit].
Consider `COc1ccc(C(CC(=O)c2ccc(C)cc2)Nc2ccc([N+](=O)[O-])cc2)cc1` (stereo not given), for which the cell number change was found to be 14.8%. In addition, under setting [1], the AC50 is 0.00517 µM [rising, full curve, poor fit].
`COc1cc([N+](=O)[O-])ccc1-c1ccc(/C=N\n2cnnc2)o1`: the cell number change was determined as 62.7%. Further, the AC50 under setting [2] was 25.9 µM [rising, single point].
Consider `CCOC(=O)C1CCN(C(=O)c2ccc3c(c2)S(=O)(=O)c2ccccc2C3=O)CC1`, for which the cell number change was 10.3%. For the same molecule, under setting [2], the AC50 is 6.51 µM [rising, single point]. Moreover, the AC50 under setting [1] was 0.116 µM [rising, single point].
For `COc1ccc(-c2cc(=O)oc3cc(OCC(=O)N4CCOCC4)ccc23)cc1`, the cell number change came to 11.8%.
Still for that read-out and setting: then `CN(Cc1nccs1)C(=O)c1ccc2nc(Cc3ccccc3F)oc2c1`, with -7.03%.
As for `COCCCNCCCCSc1ccc(Cl)cc1`, the cell number change was -68.3%. Under setting [2], the AC50 was 32.6 µM [falling, single point]. Besides, the AC50 under setting [1] was 0.184 µM [falling, full curve, poor fit].
Take `N#C/C=C/N1CCN(C(=O)c2ccco2)CC1`: the cell number change was -29.4%. Besides, the AC50 under setting [1] was 0.0146 µM [falling, full curve, poor fit].
In the case of `CCCCn1c(N)c(NCCC)c(=O)[nH]c1=O`, the cell number change is -6.68%. The AC50 under setting [2] was 1.64 µM [falling, single point]. The AC50 under setting [1] was 13 µM [rising, single point].
On to `CCC(C)(NC(=O)c1cccc(N2C(=O)CSC2c2ccccc2)c1)C(=O)Nc1ccccc1C` (stereo not given), for which the cell number change is 8.37%.
On to `O=C(NNC(=O)c1ccc(Br)o1)c1csc(N2CCOCC2)n1`, for which the cell number change is -38.4%. Besides, the AC50 under setting [2] is 1.84 µM [falling, full curve, poor fit]. Besides, the AC50 under setting [1] is 1.64 µM [falling, full curve].
Regarding `Cn1nnc2c(C(N)=O)ncn2c1=O`, the cell number change is 44.8%. Besides, the AC50 under setting [2] is 29.1 µM [rising, single point]. Moreover, the AC50 under setting [1] is 29.1 µM [rising, single point].
Regarding `COc1ccc(/C=C/C(=O)N[C@@H](C)C(=O)O)cc1`, the cell number change was -17%. Moreover, the AC50 under setting [1] is 0.461 µM [falling, full curve].
For `Cc1cc(Cl)ccc1OCC(=O)NCCOc1nc(N2CCOCC2)nc(N2CCOCC2)n1`, the cell number change is -32.6%. Further, the AC50 under setting [2] is 29.1 µM [falling, single point].
For `O=C(Nc1ccc(-c2cccc(F)c2)cc1)C1CCCN(Cc2ccccn2)C1` (stereo not given), the cell number change is -17.8%. Further, the AC50 under setting [2] was 0.058 µM [rising, single point]. Besides, under setting [1], the AC50 is 29.1 µM [falling, single point].
Consider `COc1ccc(CNC(=O)CN(Cc2ccccc2)C(=O)CCC(=O)Nc2ccccn2)cc1`, for which the cell number change stood at 14.8%. Moreover, the AC50 under setting [1] was 6.51 µM [rising, single point].
Take `O=C(Cc1ccc(S(=O)(=O)N2CCOCC2)s1)Oc1ccc(F)cc1`: the cell number change is 100%. In addition, the AC50 under setting [2] was 29.1 µM [rising, single point].
As for `CCOC(=O)C(C)Oc1cccc2c(=O)n(CC(=O)Nc3ccc4c(c3)OCCO4)ccc12` (stereo not given), the cell number change is -34.7%.
Take `O=C(CCC(=O)NNC(=O)c1ccc(Cl)cc1Cl)NCc1ccccc1`: the cell number change was 12%. Further, under setting [2], the AC50 was 2.06 µM [rising, partial curve, poor fit]. For the same molecule, the AC50 under setting [1] is 1.64 µM [rising, partial curve, poor fit].
On to `CC(CNc1ccc([N+](=O)[O-])cc1)NC(=O)c1ccccc1Br` (stereo not given), for which the cell number change turned out to be 58.3%. The AC50 under setting [2] was 29.1 µM [rising, single point].
As for `Cc1cc(N2CCC(C)CC2)n2ncc(-c3ccccc3)c2n1`, the cell number change turned out to be 30.3%. The AC50 under setting [2] is 29.1 µM [rising, single point].
Regarding `CCCNC(=O)C(Cc1ccccc1F)NC(=O)c1ccc(C#N)cc1` (stereo not given), the cell number change is -10%. In addition, the AC50 under setting [1] is 32.6 µM [rising, single point].
Turning to `COc1ccc(NC(=O)c2oc3ccccc3c2NC(=O)COc2ccccc2OC)c(OC)c1`, the cell number change is -20.2%. Further, the AC50 under setting [1] is 0.00461 µM [falling, full curve, poor fit].
`CN1OC(COC(=O)c2ccccc2)CC1c1ccccc1` (stereo not given): the cell number change came to 7.85%. Also, the AC50 under setting [1] is 1.16 µM [falling, full curve, poor fit].
`CN(C)CCOC(C1CCCCC1)C1CCCCC1`: the cell number change was 8.68%. Moreover, the AC50 under setting [1] was 20.6 µM [rising, single point].
Consider `CN1CCN(C(=O)CCc2nc3ccccc3c(=O)[nH]2)CC1`, for which the cell number change is -28.3%. Further, the concentration at half-maximal activity (AC50) under setting [2] is 3.26 µM [falling, full curve, poor fit]. Moreover, the AC50 under setting [1] was 25.9 µM [falling, single point].
Consider `Fc1ccc(-n2ncc3c(SCc4cccnc4)ncnc32)cc1`, for which the AC50 under setting [1] was 29.1 µM [falling, single point].
Regarding `Cn1nnnc1SCc1ccc(Cl)cc1`, the cell number change turned out to be 32.2%. Under setting [2], the AC50 is 2.59 µM [rising, partial curve].
As to `CCN(CC(=O)Nc1c(F)cccc1F)C(=O)CNC(=O)c1sc2ccccc2c1Cl`, the cell number change is -3.68%. Besides, the AC50 under setting [1] was 23.1 µM [falling, partial curve, poor fit].
Turning to `CCN(CC)S(=O)(=O)c1cc(C(=O)Nc2cc(C)on2)ccc1Cl`, the cell number change came out at 21.8%. Moreover, under setting [1], the AC50 was 0.116 µM [falling, single point].
Regarding `Cc1nc(SCC#N)c2c3c(sc2n1)CCC3`, the cell number change is 3.52%. Also, the AC50 under setting [1] was 0.82 µM [rising, single point].
Take `CN(CC(=O)Nc1cccc(F)c1)C(=O)C1CC(=O)N(Cc2ccco2)C1` (stereo not given): the cell number change is 2.99%. Further, the AC50 under setting [1] was 29.1 µM [falling, single point].
As for `CCCCc1nnc(NC(=O)C(C)Sc2nc(N)cc(=O)[nH]2)s1` (stereo not given), the cell number change was 24%. Further, under setting [1], the AC50 was 6.51 µM [falling, single point].
Turning to `O=C(O)CC1NCCc2ccccc21` (stereo not given), the cell number change is -9.78%. The AC50 under setting [1] was 0.58 µM [falling, single point].
Consider `O=C(O)c1ccc(-n2nnnc2SCc2ccccc2F)cc1`, for which the cell number change is -36.7%. For the same molecule, the AC50 under setting [2] was 4.61 µM [falling, single point]. In addition, the AC50 under setting [1] is 6.51 µM [falling, partial curve, poor fit].
With `CCn1cc(C(=O)OCC(=O)Nc2cccc(C)c2)c(=O)c2ccc(C)nc21`, the cell number change is 16.7%.
In the case of `CC(=O)Oc1ccc(N(C(C)=O)S(=O)(=O)c2ccc3ccccc3c2)cc1`, the cell number change was -21.3%. Further, the AC50 under setting [1] is 0.231 µM [falling, full curve, poor fit].
On to `CCCS(=O)(=O)c1ccc(COC(=O)c2cccc(NC(=O)C(C)C)c2)cc1`, for which the cell number change was found to be 2.7%. Moreover, under setting [1], the AC50 was 5.62 µM [falling, single point].
Take `CSCC[C@H](NC(=O)[C@@H]1CSC2c3ccccc3C(=O)N21)C(=O)N1CCC[C@H]1CO` (stereo not given in full): the cell number change is -7.77%. Also, the AC50 under setting [1] is 18.4 µM [rising, single point].
For the molecule `Cc1cccc(NC(=S)NCCc2ccc3c(c2)OCCO3)c1C`, the AC50 by setting is: under setting [2], 0.082 µM [falling, full curve, poor fit]; under setting [1], 0.651 µM [falling, full curve].
Consider `O=[N+]([O-])c1ccc(OCC(O)CN2CCN(c3ccccc3F)CC2)cc1` (stereo not given), for which the cell number change is 12.5%. Further, under setting [1], the AC50 is 8.2 µM [rising, partial curve, poor fit].
On to `CN(Cc1ccco1)Cc1ccc(O)c2ncccc12`, for which the cell number change was -16.2%. For the same molecule, the AC50 under setting [1] is 0.13 µM [falling, full curve, poor fit].
In the case of `O=C(CNC(=O)c1ccccc1)OCc1nnc(-c2ccc(Cl)cc2)o1`, the cell number change was -67.9%.
With `CN(CC(=O)Nc1ccc(F)c(F)c1F)C(=O)c1ccc2c(c1)S(=O)(=O)N=C1CCCCCN12`, the cell number change was 31.3%. In addition, the AC50 under setting [2] was 16.4 µM [rising, single point].
As to `COc1ccc(OC)c(CNC(=O)c2coc(=O)c3ccccc23)c1`, the cell number change is 27.6%.
Turning to `CCn1c(=O)c2cc(C(=O)Nc3ccc(OC)cc3OC)sc2c2ccccc21`, the cell number change was determined as 34%. The half-maximal activity concentration (AC50) under setting [2] is 0.184 µM [rising, full curve, poor fit]. Moreover, the AC50 under setting [1] was 0.0731 µM [rising, full curve, poor fit].
On to `COc1ccc(S(=O)(=O)NC(C)C(=O)NCCN2CCOCC2)cc1Cl` (stereo not given), for which the cell number change is -14.3%. Moreover, the AC50 under setting [1] was 29.1 µM [falling, single point].
`COc1ccccc1N=C(C)C1=C(O)COC1=O`: the cell number change came to 6.72%.
`Cc1ccc(CNC(=O)C2CNc3cc(C)ccc3O2)cc1` (stereo not given): the cell number change was -4.74%.
Still for that read-out and setting: then `O=C(Nc1ccc(N2CCCCC2)cc1)c1cc([N+](=O)[O-])cc([N+](=O)[O-])c1`, with -3.66%.
`CC(C)C[C@@H](CSc1ccccc1)N1CCN(C)CCC1=O`: the cell number change turned out to be 5.5%. The AC50 under setting [1] was 23.1 µM [falling, single point].
With `COc1ccc(C(CNc2ccc(C(F)(F)F)cn2)N(C)C)cc1OC` (stereo not given), the AC50 was 6.51 µM [rising, single point] under setting [2] and 6.51 µM [rising, single point] under setting [1].

A word on the AC50: it is the midpoint of the concentration-response curve, whichever way the signal moves.

For the origin of these results see PubChem BioAssay AID2685 (National Center for Advancing Translational Sciences (NCATS), 2010).
